Where a chain is given by its changes, count along the chain named. Results are given in words; binding and its absence hold for the method and conditions named. Binding seen in cells or lysates may run through a third protein. Some binding calls cover weakened binding; strength is not graded here. Tags and fused reporters may be left off the sequences shown.
Key:
[1] = target: T1, HA-Amot-p130^S176E (mouse (by the paper's numbering: Ser176 in mouse, Ser175 in human)) (UniProt Q8VHG2); test: co-IP; HepG2 cells co-transfected with YAP and an Amot allele, fractionated into cytoplasmic, nuclear and plasma membrane fractions; Amot IP of each fraction, anti-YAP immunoblot
T1 sequence: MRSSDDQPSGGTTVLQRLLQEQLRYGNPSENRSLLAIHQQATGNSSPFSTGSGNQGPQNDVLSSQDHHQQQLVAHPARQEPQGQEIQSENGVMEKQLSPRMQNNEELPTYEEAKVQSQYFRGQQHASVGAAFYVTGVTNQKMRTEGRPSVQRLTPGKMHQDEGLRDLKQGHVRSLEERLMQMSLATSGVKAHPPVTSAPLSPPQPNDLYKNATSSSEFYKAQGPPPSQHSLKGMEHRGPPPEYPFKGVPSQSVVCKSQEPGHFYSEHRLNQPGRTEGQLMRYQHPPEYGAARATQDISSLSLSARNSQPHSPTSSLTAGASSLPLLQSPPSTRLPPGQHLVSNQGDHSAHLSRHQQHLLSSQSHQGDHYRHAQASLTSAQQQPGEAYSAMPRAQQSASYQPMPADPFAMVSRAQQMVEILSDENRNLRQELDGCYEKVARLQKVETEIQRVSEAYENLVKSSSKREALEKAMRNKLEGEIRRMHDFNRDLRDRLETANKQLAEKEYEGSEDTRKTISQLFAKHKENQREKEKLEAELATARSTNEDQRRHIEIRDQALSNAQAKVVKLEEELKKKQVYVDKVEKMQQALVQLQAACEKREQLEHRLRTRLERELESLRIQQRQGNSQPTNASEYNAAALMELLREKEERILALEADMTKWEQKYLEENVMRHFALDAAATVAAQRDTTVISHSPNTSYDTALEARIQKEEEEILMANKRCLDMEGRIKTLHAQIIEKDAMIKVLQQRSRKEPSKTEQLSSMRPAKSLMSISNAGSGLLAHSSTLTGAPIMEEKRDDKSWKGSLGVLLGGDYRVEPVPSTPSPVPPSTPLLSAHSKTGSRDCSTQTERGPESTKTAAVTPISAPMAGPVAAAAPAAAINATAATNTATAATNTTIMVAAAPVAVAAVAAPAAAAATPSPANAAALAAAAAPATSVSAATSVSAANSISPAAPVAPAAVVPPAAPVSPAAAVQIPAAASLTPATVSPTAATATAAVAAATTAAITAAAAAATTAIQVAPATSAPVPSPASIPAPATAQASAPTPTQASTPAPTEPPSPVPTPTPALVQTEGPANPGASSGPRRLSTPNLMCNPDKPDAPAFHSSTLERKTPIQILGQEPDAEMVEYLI

The chains behind the UniProt entries cited, without tags or fusion partners.
UniProt P46937: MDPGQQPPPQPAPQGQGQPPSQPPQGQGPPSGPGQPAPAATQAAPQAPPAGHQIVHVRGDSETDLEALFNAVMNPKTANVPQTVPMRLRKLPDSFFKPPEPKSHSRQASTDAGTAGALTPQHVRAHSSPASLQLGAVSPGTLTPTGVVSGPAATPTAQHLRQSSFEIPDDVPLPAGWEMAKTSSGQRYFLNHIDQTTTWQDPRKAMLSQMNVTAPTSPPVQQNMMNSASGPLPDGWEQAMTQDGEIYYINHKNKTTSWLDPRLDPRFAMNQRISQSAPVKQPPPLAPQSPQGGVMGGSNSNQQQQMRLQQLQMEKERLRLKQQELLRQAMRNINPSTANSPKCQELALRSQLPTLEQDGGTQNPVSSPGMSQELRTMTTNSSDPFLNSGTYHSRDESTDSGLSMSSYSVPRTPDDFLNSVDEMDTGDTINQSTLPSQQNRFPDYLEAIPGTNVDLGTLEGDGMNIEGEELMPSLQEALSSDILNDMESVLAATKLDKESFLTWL

[2] = target: T2, HA-Amot-p130^S176A (mouse (by the paper's numbering: Ser176 in mouse, Ser175 in human)) (UniProt Q8VHG2); test: as above
T2 sequence: T1 sequence with E176A

[3] = target: T2, HA-Amot-p130^S176A (mouse (by the paper's numbering: Ser176 in mouse, Ser175 in human)); test: co-IP; HEK293-shAmot cells co-transfected with YAP and an Amot allele, fractionated into cytoplasmic, nuclear and plasma membrane fractions; Amot IP of each fraction, anti-YAP immunoblot

binding [1]: binds
binding [2]: binds
binding [3]: binds
Substance: V5-tagged YAP (from UniProt P46937 1-504)
